Data published in patent publication US20020028208A1 (TEXAS A AND M UNIVERSITY SYSTEM, published 2002).
No constants are given. Whether binding was seen depends on the method and setting. Some entries that bind do so weakly or less than the wild type.

Amino acid sequences for entries named in this document (tags omitted). Residues count along the entry.
UniProt P16410, residues 38-161: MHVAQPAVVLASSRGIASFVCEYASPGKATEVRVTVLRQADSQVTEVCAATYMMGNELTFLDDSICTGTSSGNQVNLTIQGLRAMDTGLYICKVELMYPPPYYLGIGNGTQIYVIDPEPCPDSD

Target: T1, feline CD80 (B7-1)-TAMU, surface expressed on feCD80/pSI transfected COS-7 cells (feline)
T1 sequence: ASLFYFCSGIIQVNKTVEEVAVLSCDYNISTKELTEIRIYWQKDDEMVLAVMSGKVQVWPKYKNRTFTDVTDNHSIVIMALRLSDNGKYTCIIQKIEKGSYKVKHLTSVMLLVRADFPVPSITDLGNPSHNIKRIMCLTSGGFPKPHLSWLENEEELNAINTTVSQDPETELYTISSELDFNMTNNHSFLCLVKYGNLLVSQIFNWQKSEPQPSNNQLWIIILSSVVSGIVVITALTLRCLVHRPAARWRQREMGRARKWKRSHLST
Assay: competitive cell-cell adhesion assay: labeled CD80-pSI COS-7 cells pre-incubated with CTLA-4 Ig at 1 ug/ml for 30 min and washed before addition to the CD28-pSI COS-7 monolayer

- binding: binds
Substance: huCTLA-4Ig fusion protein (from UniProt P16410 38-161) (Fc fusion)
